# Assay results published in PubChem BioAssay AID493014 (National Center for Advancing Translational Sciences (NCATS), 2011).
# About 170 (0.05%) of roughly 340,000 compounds were called active. This list was built around the results that the source calls inconclusive (neither active nor inactive); the mix of calls is not that of the screen. The call rests on the fitted dose curve; in most records, active means well fitted inhibition curve with a large enough effect in the signal ratio, with a control signal flat (not every such curve was filed as active); inconclusive means small, poorly fitted or top-dose-only effect, or effect the other way, or a change in a side signal; inactive means flat fitted curve, though single readings scatter; the % refers to the signal ratio. Potencies of inconclusive entries are doubtful fits and often do not repeat.
# Assay: qHTS Assay to Find Inhibitors of Chronic Active B-Cell Receptor Signaling;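 on activity change, negative = inhibition: plate controls were basal doxycycline-induced cells for no effect and cells given 10 µM MG132 for full effect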
# Details: ABC-DLBCL IkBa-CBG/CBR reporter, luminescence ratio (green luciferase fused to IkBa over red control in TMD8 lymphoma cells), 4 h; activity change, negative = inhibition: at 46.1 µM (top of the series)
# Procedure, shortened: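 Concentration-response series (up to 46 uM) were applied to TMD8 dual-reporter cells for 4 h at 37C with doxycycline. Green/red ratio, after filter-overlap correction, defined %Activity; red signal alone was normalised to basal cells and zero luminescence.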
# Potency means the concentration at half of the fitted maximal effect.
SMILES,"activity change, negative = inhibition",Potency
O=c1c(-c2cc3ccccc3o2)[n+]([O-])c2ccccc2n1OCc1ccccn1,inactive: 0.438%,
CCN1C(=O)C2C(C1=O)N1C(c3cccs3)C3C(=O)N(CC)C(=O)C3N1C2c1cccs1 (stereo not given),inconclusive: -2.39%,
Cc1ccc(-c2cc(N)n(-c3ccc(F)cc3)n2)cc1,,"inconclusive: 12.6 µM [falling, single point]"
Cc1cc(CNC(=O)COc2cc(F)ccc2[N+](=O)[O-])c2ccccc2n1,inactive: 3.82%,
O=C(Nc1ccccc1)C1=C[C@@H](c2ccc(Br)cc2)C[C@@H](OCc2ccc(CO)cc2)O1,,"inconclusive: 35.5 µM [falling, single point]"
Cc1c(C(=O)NCC2CCCO2)oc2ccccc12 (stereo not given),inconclusive: 1.96%,
Oc1ccc2c(c1)oc1cc(O)ccc12,inconclusive: -7.34%,
CC(C)CCNC(=O)c1ccc(-c2ccccc2)cc1,inconclusive: 4.43%,
O=C(N/N=C/c1cccc([N+](=O)[O-])c1O)c1cccs1,,"inconclusive: 20.6 µM [falling, single point]"
Cc1c(NC(=O)c2cc(-c3ccccc3)nc3ccccc23)c(=O)n(-c2ccccc2)n1C,inconclusive: -0.0799%,
NS(=O)(=O)c1ccc(Cl)c(C(=O)Nc2ccccc2[N+](=O)[O-])c1,inconclusive: 2.27%,
CCOC(=O)C1Oc2ccccc2C(c2ccc(F)cc2)=C1C(=O)OC (stereo not given),inactive: -1.03%,
Cc1ccc(C)c(OCC(=O)N/N=C/c2ccsc2)c1,inconclusive: -3.15%,
COc1ccc(NC(=S)NCc2ccc(F)cc2)cc1,inactive: -2.36%,
Cc1ccc(C)c(N(C(=O)Cn2nnc(-c3cccs3)n2)C(C(=O)NC2CC2)c2ccc(C)o2)c1 (stereo not given),,"inconclusive: 18.4 µM [rising, partial curve, poor fit]"
COc1cc(OC)c(OC)cc1CN1CCN(Cc2cccn2C)CC1,inactive: -0.457%,
CC1CC/C(=C\c2ccc3c(c2)OCO3)C(=O)/C1=C/c1ccc2c(c1)OCO2 (stereo not given),inactive: -2.54%,
COc1cccc2c(=O)c(C(=O)NCc3cccs3)c[nH]c12,,"inconclusive: 12.6 µM [falling, single point]"
CCOc1ccc(N2C(=O)CC(N(Cc3ccco3)C(=O)CC)C2=O)cc1 (stereo not given),inconclusive: 5.06%,
O=C(Nc1ccc(-c2cn3ccccc3n2)cc1)c1cccs1,,"inconclusive: 35.5 µM [falling, single point]"

SMILES,"activity change, negative = inhibition",Potency
CC1CCCC(NC(=O)c2ccc3c(c2)NC(=O)CS3)C1C (stereo not given),inconclusive: -18.1%,
CC(C)CC1c2[nH]c3ccccc3c2CCN1CCCn1cccn1 (stereo not given),inactive: -9%,
O=C(CSc1nnc(-c2ccccn2)o1)Nc1ccccc1F,,"inconclusive: 28.2 µM [falling, partial curve]"
Cc1ccc(S(=O)(=O)N2CCOCC2)cc1C(=O)OCC(=O)Nc1ccc2[nH]c(=O)[nH]c2c1,inactive: 5.66%,
Cc1cc(NC(=O)CSc2nnc(CNC(=O)c3ccc(C(C)(C)C)cc3)o2)no1,inactive: 2.13%,
C=CCN1C(=O)/C(=C/c2ccc(OCC(=O)O)cc2)S/C1=N/c1nccs1,inactive: 4.13%,
C=CCOc1ccc(CN(C)c2ccc(S(=O)(=O)N3CCN(C)CC3)cc2[N+](=O)[O-])cc1,inactive: -0.797%,
COc1ccc(S(=O)(=O)N2CCC(C(=O)NCc3ccncc3)CC2)cc1Cl,inactive: 3.77%,
O=C1NC(=O)/C(=C\c2ccc(OCc3cnc(Cl)s3)cc2)S1,inconclusive: 1.78%,
O=C(Cn1c(C(=O)NCc2ccco2)cc2sccc21)c1ccccc1,inconclusive: 9.69%,
O=C(NNC(=O)c1ccc(Br)o1)c1ccc(NC(=O)c2ccccc2)cc1,inconclusive: -1.91%,
Cc1cnc(NC(=O)CSc2nnc(Cc3ccccc3)o2)s1,inconclusive: 15.1%,
CCOC(=O)[C@H]1[C@H]2COc3ccc(OC)cc3[C@@H]2N2C(=O)CN(Cc3ccc(F)cc3)C(=O)[C@@]12C,inactive: 5.36%,
COc1ccc(-c2n[nH]c(=S)n2-c2ccc(C)cc2C)cc1,inactive: -0.547%,
CN1C(=O)c2ccccc2Sc2ccc(NC(=O)c3ccccc3F)cc21,,"inconclusive: 35.5 µM [falling, single point]"
CC(C)C(=O)Nc1cc(S(=O)(=O)Nc2ccc(Cl)cc2)ccc1Cl,inactive: 6.29%,
NNC(=O)[C@H](Cc1ccccc1)NC(=O)Nc1ccc2c(c1)OCCO2,,"inconclusive: 12.6 µM [falling, partial curve, poor fit]"
Cc1ccc2[nH]c3c(=O)n(CC(=O)Nc4ccccc4N4CCN(C)CC4)ncc3c2c1,inactive: -8.51%,
COc1ccccc1-n1c(SCC(=O)NC2CCS(=O)(=O)C2)nc2cc([N+](=O)[O-])ccc21 (stereo not given),inconclusive: -11.2%,
O=C(N/N=C/c1c[nH]c2ccccc12)C1CC1c1ccccc1 (stereo not given),,"inconclusive: 32.6 µM [falling, partial curve, poor fit]"

# In a second layout: results already given
SMILES	activity change, negative = inhibition	Potency
C=CCOc1ccc(CN(C)c2ccc(S(=O)(=O)N3CCN(C)CC3)cc2[N+](=O)[O-])cc1	inactive: -0.797%	
O=C(N/N=C/c1c[nH]c2ccccc12)C1CC1c1ccccc1 (stereo not given)		inconclusive: 32.6 µM [falling, partial curve, poor fit]
